# Reference: PubChem BioAssay AID624291 (National Center for Advancing Translational Sciences (NCATS), 2012)
# The whole screen tested about 350,000 compounds, of which about 220 (0.063%) were called active. Inconclusive results, whose numbers are uncertain, are shown with a selection of clear calls. Calls come from the whole dose curve; as a rule, active = well fitted activation curve with a large enough effect; inconclusive = small, poorly fitted or top-dose-only effect; inactive = no such curve, though single readings can be large or run the other way. Potencies beside an inconclusive call are fits to weak or partial responses and may not hold up.
# Assay: qHTS for Activators of Integrin-Mediated Alleviation for Muscular Dystrophy; note: nearly all actives have a fitted effect of over 60% in size;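 for activation: 100% = response of the positive control SU9516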
# Details: alpha7betagal myoblasts, beta-gal FDG fluorescence, 48 h; activation: at 38.3 µM (top of the series)
# In short: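 alpha7betagal+/- myoblasts (passage 13, 250/well) treated 48 h at 37C with compounds at 1:260 dilution of DMSO stock. Lysed, then beta-galactosidase activity read as FDG fluorescence (ex 480/em 540) after 30 min, with pre-read for autofluorescence.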
# Potency is the fitted concentration of half-maximal effect.
Compound,Potency,activation
COc1cc2c(cc1OC)C(C1C(=O)CCCC1=O)N(C(=O)CCl)CC2 (configuration not stated),inactive,
COc1ccc(CCN2C(=O)CSC2=S)cc1OC,inactive,
O=C(CCNC(=O)c1ccc(Br)cc1)Nc1ccc(S(=O)(=O)Nc2ncccn2)cc1,inactive,
COc1cccc2sc(Nc3nc(C)c(C(C)=O)s3)nc12,"inconclusive: 11.2 µM [activator, single point]",
COc1cc2c(cc1NC(=S)Nc1cccc(C)c1)oc1ccccc12,"inconclusive: 31.6 µM [activator, single point]",
O=C(N1CCN(c2ccccc2)CC1)C12CC3CC(CC(C3)C1)C2,inactive,
CCCn1c(N)c(N(CCOC)C(=O)CSc2ccccc2)c(=O)[nH]c1=O,"inconclusive: 3.16 µM [activator, partial curve, poor fit]",
CC1(C)c2ccccc2N2CC(=O)N[C@@]21/C=C/C=C/c1ccccc1,inactive,
Cc1ccc(CS(=O)(=O)CC(C)(O)c2ccc(Cl)cc2)cc1 (configuration not stated),"inconclusive: 31.6 µM [activator, partial curve, poor fit]",
Cc1ccc(S(=O)(=O)Oc2ccc(/C=C3/N=C(c4ccccc4)OC3=O)cc2)cc1,"inconclusive: 5.01 µM [activator, single point]",
Cc1cc(O)c(C2(O)C(=O)Nc3ccccc32)cc1C (configuration not stated),"inconclusive: 28.2 µM [activator, single point]",
CC(C)C(CCN1C(=O)CCC1=O)C1CCOC(C)(C)C1 (configuration not stated),"inconclusive: 15.8 µM [activator, single point]",
OC1(c2ccc(Br)cc2)CCN(Cc2cccc(Br)c2)CC1,inactive,
CC(OC(=O)CCc1nc2ccccc2c(=O)[nH]1)C(=O)c1ccc(C(C)(C)C)cc1 (configuration not stated),inactive,
O=C(Nc1ccccc1Cl)C1C(c2ccccc2)C1(Cl)Cl (configuration not stated),inactive,
Cc1ccc(NC(=O)Nc2ccc(F)cc2)cc1Cl,"inconclusive: 2.82 µM [activator, single point]",
Cc1ccc(NC(=O)CNCC2CCCCC2)cc1S(=O)(=O)N(C)C,"inconclusive: 3.55 µM [activator, single point]",
O=C(c1sc2ccccc2c1Cl)N(Cc1ccco1)C1CCS(=O)(=O)C1 (configuration not stated),,inactive: 10.5% [at 7.66 µM]
CCOC(=O)c1ccccc1NC(=O)c1ccc2nccnc2c1,"inconclusive: 28.2 µM [activator, single point]",
O=C(NCc1ccco1)c1c[nH]c2ccc(S(=O)(=O)N3CCOCC3)cc2c1=O,inactive,
COc1ccccc1/C=C1\SC(=S)N(C(C(=O)O)c2ccccc2)C1=O (configuration not stated),"inconclusive: 2.51 µM [activator, full curve, poor fit]",
Cc1cccn2cc(-c3cc4ccccc4oc3=O)nc12,"inconclusive: 31.6 µM [activator, partial curve, poor fit]",
COc1ccc(CN2CCN(c3ccccc3OC)CC2)c(OC)c1,"inconclusive: 31.6 µM [activator, partial curve, poor fit]",
CC(=O)c1ccc(OCCCCCCCOc2ccc(C(C)=O)cc2)cc1,inactive,

# Given as tab-separated lines: part of the list above.
Compound	Potency	activation
COc1cccc2sc(Nc3nc(C)c(C(C)=O)s3)nc12	inconclusive: 11.2 µM [activator, single point]	
COc1cc2c(cc1NC(=S)Nc1cccc(C)c1)oc1ccccc12	inconclusive: 31.6 µM [activator, single point]	
O=C(N1CCN(c2ccccc2)CC1)C12CC3CC(CC(C3)C1)C2	inactive	
CCCn1c(N)c(N(CCOC)C(=O)CSc2ccccc2)c(=O)[nH]c1=O	inconclusive: 3.16 µM [activator, partial curve, poor fit]	
CC1(C)c2ccccc2N2CC(=O)N[C@@]21/C=C/C=C/c1ccccc1	inactive	
Cc1ccc(CS(=O)(=O)CC(C)(O)c2ccc(Cl)cc2)cc1 (configuration not stated)	inconclusive: 31.6 µM [activator, partial curve, poor fit]	
Cc1ccc(S(=O)(=O)Oc2ccc(/C=C3/N=C(c4ccccc4)OC3=O)cc2)cc1	inconclusive: 5.01 µM [activator, single point]	
Cc1cc(O)c(C2(O)C(=O)Nc3ccccc32)cc1C (configuration not stated)	inconclusive: 28.2 µM [activator, single point]	
CC(C)C(CCN1C(=O)CCC1=O)C1CCOC(C)(C)C1 (configuration not stated)	inconclusive: 15.8 µM [activator, single point]	
OC1(c2ccc(Br)cc2)CCN(Cc2cccc(Br)c2)CC1	inactive	
CC(OC(=O)CCc1nc2ccccc2c(=O)[nH]1)C(=O)c1ccc(C(C)(C)C)cc1 (configuration not stated)	inactive	
O=C(Nc1ccccc1Cl)C1C(c2ccccc2)C1(Cl)Cl (configuration not stated)	inactive	
Cc1ccc(NC(=O)Nc2ccc(F)cc2)cc1Cl	inconclusive: 2.82 µM [activator, single point]	
Cc1ccc(NC(=O)CNCC2CCCCC2)cc1S(=O)(=O)N(C)C	inconclusive: 3.55 µM [activator, single point]	
O=C(c1sc2ccccc2c1Cl)N(Cc1ccco1)C1CCS(=O)(=O)C1 (configuration not stated)		inactive: 10.5% [at 7.66 µM]
CCOC(=O)c1ccccc1NC(=O)c1ccc2nccnc2c1	inconclusive: 28.2 µM [activator, single point]	
O=C(NCc1ccco1)c1c[nH]c2ccc(S(=O)(=O)N3CCOCC3)cc2c1=O	inactive	
COc1ccccc1/C=C1\SC(=S)N(C(C(=O)O)c2ccccc2)C1=O (configuration not stated)	inconclusive: 2.51 µM [activator, full curve, poor fit]	
Cc1cccn2cc(-c3cc4ccccc4oc3=O)nc12	inconclusive: 31.6 µM [activator, partial curve, poor fit]	
COc1ccc(CN2CCN(c3ccccc3OC)CC2)c(OC)c1	inconclusive: 31.6 µM [activator, partial curve, poor fit]	

# Further results

Compound,Potency,activation
Nc1nc(Nc2ccccc2F)nc(NCc2ccccc2)c1[N+](=O)[O-],"inconclusive: 22.4 µM [activator, partial curve, poor fit]",
O=C(CSc1ccc2ccccc2n1)NC1CC1,"inconclusive: 12.6 µM [activator, partial curve, poor fit]",
CCCCNc1nnc(Cc2ccc(Cl)cc2)c(=O)[nH]1,"inconclusive: 2.51 µM [activator, full curve, poor fit]",
COc1ccc2[nH]c(C(=O)N(C)Cc3ccccc3)c(C)c2c1,"inconclusive: 28.2 µM [activator, single point]",
COCCN(C(=O)CNC(=O)c1cccs1)C(C(=O)NC(C)(C)C)c1ccccc1 (configuration not stated),"inconclusive: 0.501 µM [activator, full curve, poor fit]",
COc1ccc(C(=O)COC(=O)CCN2C(=O)C3CC=CCC3C2=O)c(OC)c1 (configuration not stated),"inconclusive: 11.2 µM [activator, partial curve, poor fit]",
COc1ccc(C)cc1S(=O)(=O)N(C)CC(N)=O,"inconclusive: 3.16 µM [activator, single point]",
NC(=S)N/N=C/c1ccccc1OCCSc1ccc(Cl)cc1,inactive,
C=CCOC(=O)C1=C(C)NC(C)=C(C(=O)OCC=C)C1c1cccs1,"inconclusive: 28.2 µM [activator, partial curve, poor fit]",
CSc1ncc(Cl)c(C(=O)Nc2ccc(C)c(C)c2)n1,inactive,
COc1ccccc1NC(=O)/C=C1\NC(=O)CS1,"inconclusive: 15.8 µM [activator, single point]",
Cc1c(C(=O)NC2CCCc3ccccc32)cccc1[N+](=O)[O-] (configuration not stated),"inconclusive: 5.01 µM [activator, single point]",
O=C(COC(=O)c1ccc(Cl)nc1)NC1CCCCCC1,"inconclusive: 11.2 µM [activator, partial curve, poor fit]",
FC(F)(F)c1cccc(-c2cc(C3CCNCC3)[nH]n2)c1,"inconclusive: 22.4 µM [activator, single point]",
CCOC(=O)c1ccc(NC(=S)NCc2ccco2)cc1,"inconclusive: 5.01 µM [activator, single point]",
O=C1N[C@@H](Cc2ccccc2)COC(=O)[C@@H](Cc2ccc(F)cc2)CC/C=C/C[C@H]1CC(=O)N(CCO)Cc1ccccc1,inactive,
O=C(Cn1cnc2ccccc21)Nc1cccc([N+](=O)[O-])c1,inactive,
CC1=Nc2ccc(C)cc2/C1=C/c1c(N)n2oc(C)cc2nc1=O,"inconclusive: 10 µM [activator, single point]",
CC(C)CCn1c(=S)[nH]c2ncccc2c1=O,inactive,
Oc1cc2ccccc2cc1-c1n[nH]c(=S)o1,inactive,
N#CC(c1ccc(F)cc1)c1ccc(C(=O)c2ccc(F)cc2)cc1 (configuration not stated),inactive,
CCOC(=O)c1ccc(NC(=O)c2nn(CC)cc2Br)cc1,inactive,
O=C(O)c1cccc(N/N=C/c2ccc(OC(F)(F)F)cc2)c1,"inconclusive: 2.51 µM [activator, single point]",
CO/N=C/C(C#N)=C/c1cc(C(=O)c2ccc(F)cc2)cn1C,"inconclusive: 4.47 µM [activator, single point]",

Compound,Potency,activation
CCc1nnc(NC(=S)Nc2ccccc2)s1,inactive,
CCn1c(COc2ccc(C)cc2)nnc1SCc1ccc(C#N)cc1,"inconclusive: 11.2 µM [activator, partial curve, poor fit]",
O=C(NNC(=S)Nc1ccc(Cl)cc1)c1cccs1,"inconclusive: 11.2 µM [activator, partial curve, poor fit]",
COc1ccc(S(=O)(=O)N2CCC(C(=O)NC(c3nc4ccccc4[nH]3)C(C)C)CC2)cc1 (configuration not stated),"inconclusive: 3.55 µM [activator, single point]",
Cc1cccc(/N=C/c2nc(-c3ccccc3Br)oc2O)n1,,inconclusive: -34.2% [activator]
CCCN(CCC)S(=O)(=O)c1ccc(C(=O)Nc2nc3c(s2)CCc2ccccc2-3)cc1,"inconclusive: 28.2 µM [activator, single point]",
O=C(CSc1nc2ccccc2o1)Nc1ccc(N2CCOCC2)c(Cl)c1,inactive,
CCOP(=O)(OCC)C(NC(=O)NS(=O)(=O)c1ccc(C)cc1)c1ccccc1 (configuration not stated),"inconclusive: 28.2 µM [activator, single point]",
O=C(Nc1ncc(Cc2ccccc2Cl)s1)C1=NCCN1,"inconclusive: 0.501 µM [activator, full curve, poor fit]",
COc1ccc(/C=C/C(=O)Nc2ccc(OC)nc2)cc1,"inconclusive: 1.41 µM [activator, partial curve, poor fit]",
COc1cc(/C=C2\SC(=S)N(N(C)c3ccccc3)C2=O)ccc1O,"inconclusive: 2.82 µM [activator, single point]",
CCN1C(=O)c2ccccc2S(=O)(=O)c2ccc(C(=O)NCCCN(CC(C)C)CC(C)C)cc21,"inconclusive: 20 µM [activator, single point]",
Cc1cccc(CSc2ccc(S(=O)(=O)N3CCCC3)cn2)c1,"inconclusive: 5.01 µM [activator, single point]",
COC(=O)C1=C(C)N=C2SC(C)C(=O)N2C1/C=C/c1ccccc1OC (configuration not stated),"inconclusive: 5.01 µM [activator, single point]",
Cc1ccnc(NC(=O)CCNS(=O)(=O)c2ccc(C)c(C)c2)c1,"inconclusive: 5.01 µM [activator, single point]",
COc1cc(C#N)c(NS(=O)(=O)c2ccc3[nH]c(=O)sc3c2)cc1OC,"inconclusive: 5.01 µM [activator, single point]",
c1ccc2c(c1)ncn2Cc1nnc2sc(-c3ccc4c(c3)OCO4)nn12,inactive,
Brc1cccc(OCCN2CCc3ccccc3C2)c1,"inconclusive: 5.01 µM [activator, single point]",
O=C(COc1ccccc1)OC(C(=O)c1ccccc1)c1ccccc1 (configuration not stated),inactive,
CCOc1ccc(/C=N/n2c(-c3ccccc3)n[nH]c2=S)cc1,inactive,
N#CC1=C(N)Oc2ccc3ccc(O)cc3c2C1c1ccsc1 (configuration not stated),inactive,
O=C(CN(c1ccc(Cl)cc1)S(=O)(=O)c1ccccc1)N/N=C/c1ccco1,"inconclusive: 3.16 µM [activator, single point]",
O=S(=O)(c1ccc2c(c1)OCCO2)N1CCN(Cc2ccccc2)CC1,inactive,
COc1ccccc1OCC(=O)Nc1ccc(NC(=O)COc2ccccc2OC)cc1,inactive,
